The source of these data is paper PMC11286522.

Chains of the proteins cited; added tags and fusions are not shown. Residues count along the entry.
UniProt O15460, residues 22-535: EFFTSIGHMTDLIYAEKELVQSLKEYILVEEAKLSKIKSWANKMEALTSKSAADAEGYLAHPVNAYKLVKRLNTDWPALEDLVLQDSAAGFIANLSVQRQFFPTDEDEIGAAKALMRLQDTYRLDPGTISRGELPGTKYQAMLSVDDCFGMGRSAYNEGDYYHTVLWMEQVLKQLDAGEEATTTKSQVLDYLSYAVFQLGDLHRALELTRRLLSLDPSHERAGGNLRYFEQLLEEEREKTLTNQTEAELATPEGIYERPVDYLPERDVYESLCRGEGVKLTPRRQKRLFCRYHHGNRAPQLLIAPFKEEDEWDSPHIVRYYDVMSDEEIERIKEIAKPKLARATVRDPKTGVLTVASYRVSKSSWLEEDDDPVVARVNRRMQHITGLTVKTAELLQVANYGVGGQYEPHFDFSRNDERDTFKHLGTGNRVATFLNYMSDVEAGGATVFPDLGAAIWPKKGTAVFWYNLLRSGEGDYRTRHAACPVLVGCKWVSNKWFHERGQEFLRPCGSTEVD
UniProt P07237, residues 18-508: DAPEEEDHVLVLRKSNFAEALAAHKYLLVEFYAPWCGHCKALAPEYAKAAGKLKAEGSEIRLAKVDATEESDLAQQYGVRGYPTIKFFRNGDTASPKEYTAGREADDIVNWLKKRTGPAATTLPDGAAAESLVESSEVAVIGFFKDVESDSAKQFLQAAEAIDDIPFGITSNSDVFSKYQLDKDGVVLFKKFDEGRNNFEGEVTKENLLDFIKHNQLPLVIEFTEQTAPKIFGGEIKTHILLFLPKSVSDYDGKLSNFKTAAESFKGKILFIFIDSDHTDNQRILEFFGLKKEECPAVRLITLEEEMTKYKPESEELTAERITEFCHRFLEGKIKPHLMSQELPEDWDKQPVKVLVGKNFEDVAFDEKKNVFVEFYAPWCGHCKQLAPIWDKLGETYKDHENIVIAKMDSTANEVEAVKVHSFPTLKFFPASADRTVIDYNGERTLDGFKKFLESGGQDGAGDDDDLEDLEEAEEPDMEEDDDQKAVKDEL

The target of this test is TAP-P4HA2 (UniProt O15460). In words: affinity purification with mass spectrometry; tandem affinity purification of TAP-P4HA2 from transfected HEK293T lysate (50 mM Tris-HCl pH 7.5, 125 mM NaCl, 0.2% NP-40): IgG beads, AcTEV release, streptavidin beads, 4 °C; LC-MS/MS.

Results are given in words; binding and its absence hold for the method and conditions named. In cells and extracts the contact can be indirect. Here binding means that the protein was enriched with, or labelled near, the bait; the list need not be complete.

Consider “β subunit of the P4HA2 α2β2 heterotetramer (from UniProt P07237 18-508)”, for which the binding result is recorded as “binds”.

B1: KIF7 (endogenous) (protein, UniProt Q2M1P5 1-1343)
chain: MGLEAQRLPGAEEAPVRVALRVRPLLPKELLHGHQSCLQVEPGLGRVTLGRDRHFGFHVVLAEDAGQEAVYQACVQPLLEAFFEGFNATVFAYGQTGSGKTYTMGEASVASLLEDEQGIVPRAMAEAFKLIDENDLLDCLVHVSYLEVYKEEFRDLLEVGTASRDIQLREDERGNVVLCGVKEVDVEGLDEVLSLLEMGNAARHTGATHLNHLSSRSHTVFTVTLEQRGRAPSRLPRPAPGQLLVSKFHFVDLAGSERVLKTGSTGERLKESIQINSSLLALGNVISALGDPQRRGSHIPYRDSKITRILKDSLGGNAKTVMIACVSPSSSDFDETLNTLNYASRAQNIRNRATVNWRPEAERPPEETASGARGPPRHRSETRIIHRGRRAPGPATASAAAAMRLGAECARYRACTDAAYSLLRELQAEPGLPGAAARKVRDWLCAVEGERSALSSASGPDSGIESASVEDQAAQGAGGRKEDEGAQQLLTLQNQVARLEEENRDFLAALEDAMEQYKLQSDRLREQQEEMVELRLRLELVRPGWGGPRLLNGLPPGSFVPRPHTAPLGGAHAHVLGMVPPACLPGDEVGSEQRGEQVTNGREAGAELLTEVNRLGSGSSAASEEEEEEEEPPRRTLHLRRNRISNCSQRAGARPGSLPERKGPELCLEELDAAIPGSRAVGGSKARVQARQVPPATASEWRLAQAQQKIRELAINIRMKEELIGELVRTGKAAQALNRQHSQRIRELEQEAEQVRAELSEGQRQLRELEGKELQDAGERSRLQEFRRRVAAAQSQVQVLKEKKQATERLVSLSAQSEKRLQELERNVQLMRQQQGQLQRRLREETEQKRRLEAEMSKRQHRVKELELKHEQQQKILKIKTEEIAAFQRKRRSGSNGSVVSLEQQQKIEEQKKWLDQEMEKVLQQRRALEELGEELHKREAILAKKEALMQEKTGLESKRLRSSQALNEDIVRVSSRLEHLEKELSEKSGQLRQGSAQSQQQIRGEIDSLRQEKDSLLKQRLEIDGKLRQGSLLSPEEERTLFQLDEAIEALDAAIEYKNEAITCRQRVLRASASLLSQCEMNLMAKLSYLSSSETRALLCKYFDKVVTLREEQHQQQIAFSELEMQLEEQQRLVYWLEVALERQRLEMDRQLTLQQKEHEQNMQLLLQQSRDHLGEGLADSRRQYEARIQALEKELGRYMWINQELKQKLGGVNAVGHSRGGEKRSLCSEGRQAPGNEDELHLAPELLWLSPLTEGAPRTREETRDLVHAPLPLTWKRSSLCGEEQGSPEELRQREAAEPLVGRVLPVGEAGLPWNFGPLSKPRRELRRASPGMIDVRKNPL
In the case of B1, the binding entry is recorded as “binds”.
